Measurements: patent US20190185568A1
These are yes or no findings as the source states them, for the method shown. Binding can be weak; no strength is given.

Key:
[1] = target: bovine PD-1 expressed on CHO-DG44 cells (bovine PD-1 expressing cells) (bovine); assay: flow cytometry on bovine PD-1 expressing CHO-DG44 cells
[2] = target: bovine PD-1 expressed on CHO-DG44 cells (bovine PD-1 expressing cells) (bovine); assay: flow cytometry on bovine PD-1 expressing CHO-DG44 cells, Alexa Fluor 647-labeled anti-bovine IgG (H+L) detection

B1: rat-bovine chimeric anti-bovine PD-1 antibody ch5D2 (mutated bovine IgG1, IgG1 ADCC-) (antibody)
heavy: QVQLKETGPGLVQPTQTLSITCTVSGFSLTSYYIQWVRQTPGKGLEWMGFIRSGGSTEYNSEFKSRLSINRDTSKNQVFLKMNSLKTEDTGVYYCARTSSGYEGGFDYWGQGVMVTVSSASTTAPKVYPLSSCCGDKSSSTVTLGCLVSSYMPEPVTVTWNSGALKSGVHTFPAVLQSSGLYSLSSMVTVPGSTSGQTFTCNVAHPASSTKVDKAVDPTCKPSPCDCCPPPPVAGPSVFIFPPKPKDTLTISGTPEVTCVVVDVGHDDPEVKFSWFVDDVEVNTATTKPREEQFNSTYRVVSALRIQHQDWTGGKEFKCKVHNEGLPSSIVRTISRTKGPAREPQVYVLAPPQEELSKSTVSLTCMVTSFYPDYIAVEWQRNGQPESEDKYGTTPPQLDADSSYFLYSKLRVDRNSWQEGDTYTCVVMHEALHNHYTQKSTSKSAGK
light: DVVLTQTPVSLSVTLGDQASISCRSSQSLEYSDGYTYLEWYLQKPGQSPQLLIYGVSNRFSGVPDRFIGSGSGTDFTLKISRVEPEDLGVYYCFQATHDPDTFGAGTKLELKQPKSPPSVTLFPPSTEELNGNKATLVCLISDFYPGSVTVVWKADGSTITRNVETTRASKQSNSKYAASSYLSLTSSDWKSKGSYSCEVTHEGSTVTKTVKPSECS
- binding [1]: binds
- binding [2]: binds
